In publication PMC9957047, “A Role for the Interactions between Polδ and PCNA Revealed by Analysis of pol3-01 Yeast Mutants” (Genes, 2023):
Results are given in words; binding and its absence hold for the method and conditions named. In cells and extracts the contact can be indirect. Some binding calls cover weakened binding; strength is not graded here. Sequences can lack the tags named with a protein.

The chains behind the UniProt entries cited, without tags or fusion partners.
UniProt P15873: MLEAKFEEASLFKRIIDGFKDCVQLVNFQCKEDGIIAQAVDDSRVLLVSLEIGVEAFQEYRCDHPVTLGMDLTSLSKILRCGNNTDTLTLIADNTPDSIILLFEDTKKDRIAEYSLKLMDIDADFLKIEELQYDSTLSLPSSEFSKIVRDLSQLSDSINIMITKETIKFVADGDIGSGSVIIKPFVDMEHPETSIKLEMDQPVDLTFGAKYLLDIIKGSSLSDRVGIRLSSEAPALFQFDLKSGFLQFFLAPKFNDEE

T1: HA-tagged Pol31 (pol31-HA) (S. cerevisiae) (UniProt P46957)
T1 sequence: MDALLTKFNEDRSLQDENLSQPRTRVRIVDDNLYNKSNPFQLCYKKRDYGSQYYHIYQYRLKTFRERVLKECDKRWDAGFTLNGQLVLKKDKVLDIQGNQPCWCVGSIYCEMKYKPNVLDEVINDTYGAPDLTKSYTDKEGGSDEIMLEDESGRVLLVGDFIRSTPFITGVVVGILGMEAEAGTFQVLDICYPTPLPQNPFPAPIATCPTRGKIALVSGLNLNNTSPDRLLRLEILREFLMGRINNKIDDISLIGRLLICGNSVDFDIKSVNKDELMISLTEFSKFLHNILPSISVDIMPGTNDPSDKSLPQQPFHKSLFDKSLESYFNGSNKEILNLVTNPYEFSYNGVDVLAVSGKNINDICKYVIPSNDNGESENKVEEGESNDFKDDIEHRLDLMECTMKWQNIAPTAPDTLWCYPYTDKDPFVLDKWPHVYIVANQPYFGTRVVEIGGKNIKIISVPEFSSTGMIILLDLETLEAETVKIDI

T2: HA-tagged Pol31-K358E (pol31-K358E-HA) (S. cerevisiae) (UniProt P46957)
T2 sequence: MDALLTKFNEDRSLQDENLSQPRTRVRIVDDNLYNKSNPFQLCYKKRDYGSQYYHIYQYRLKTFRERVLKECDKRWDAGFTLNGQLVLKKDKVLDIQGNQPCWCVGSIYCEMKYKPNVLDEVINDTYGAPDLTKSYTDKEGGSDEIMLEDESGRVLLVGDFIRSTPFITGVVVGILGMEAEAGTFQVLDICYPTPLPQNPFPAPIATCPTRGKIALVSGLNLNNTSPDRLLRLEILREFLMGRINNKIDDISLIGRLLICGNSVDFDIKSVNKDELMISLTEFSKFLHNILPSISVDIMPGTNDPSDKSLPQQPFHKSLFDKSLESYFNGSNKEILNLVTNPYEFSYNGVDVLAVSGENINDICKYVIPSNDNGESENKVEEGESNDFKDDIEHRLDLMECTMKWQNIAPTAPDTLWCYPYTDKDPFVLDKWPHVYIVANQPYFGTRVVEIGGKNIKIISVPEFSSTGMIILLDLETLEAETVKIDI


Key:
[1] = molecular target: T1, HA-tagged Pol31 (pol31-HA) (S. cerevisiae); assay: co-IP; triply-tagged strains with POL3-MYC (wild-type POL3 background); mid-log cells; HA-tagged Pol31 immunoprecipitated with anti-HA antibodies; Western blot with anti-Myc for Pol3 and Rev3 (Figure 6A)
[2] = molecular target: T2, HA-tagged Pol31-K358E (pol31-K358E-HA) (S. cerevisiae); assay: as above
[3] = molecular target: FLAG-tagged PCNA (Pol30; POL30-FLAG) (S. cerevisiae) (UniProt P15873); assay: co-IP; FLAG-tagged PCNA (Pol30) immunoprecipitated with anti-FLAG antibodies from yeast extract; Western blot with anti-Myc (Figure 3A)
[4] = molecular target: T1, HA-tagged Pol31 (pol31-HA) (S. cerevisiae); assay: co-IP; triply-tagged strains with pol3-01-MYC (pol3-01 background); mid-log cells; HA-tagged Pol31 immunoprecipitated with anti-HA antibodies; Western blot with anti-Myc for Pol3-01 and Rev3 (Figure 6A)
[5] = molecular target: T2, HA-tagged Pol31-K358E (pol31-K358E-HA) (S. cerevisiae); assay: as above

binding [1] | binding [2] | binding [3] | binding [4] | binding [5] | Binder
binds | binds |  |  |  | Myc-tagged Pol3 (POL3-MYC) (protein, UniProt P15436 1-1097) MSEKRSLPMVDVKIDDEDTPQLEKKIKRQSIDHGVGSEPVSTIEIIPSDSFRKYNSQGFKAKDTDLMGTQLESTFEQELSQMEHDMADQEEHDLSSFERKKLPTDFDPSLYDISFQQIDAEQSVLNGIKDENTSTVVRFFGVTSEGHSVLCNVTGFKNYLYVPAPNSSDANDQEQINKFVHYLNETFDHAIDSIEVVSKQSIWGYSGDTKLPFWKIYVTYPHMVNKLRTAFERGHLSFNSWFSNGTTTYDNIAYTLRLMVDCGIVGMSWITLPKGKYSMIEPNNRVSSCQLEVSINYRNLIAHPAEGDWSHTAPLRIMSFDIECAGRIGVFPEPEYDPVIQIANVVSIAGAKKPFIRNVFTLNTCSPITGSMIFSHATEEEMLSNWRNFIIKVDPDVIIGYNTTNFDIPYLLNRAKALKVNDFPYFGRLKTVKQEIKESVFSSKAYGTRETKNVNIDGRLQLDLLQFIQREYKLRSYTLNAVSAHFLGEQKEDVHYSIISDLQNGDSETRRRLAVYCLKDAYLPLRLMEKLMALVNYTEMARVTGVPFSYLLARGQQIKVVSQLFRKCLEIDTVIPNMQSQASDDQYEGATVIEPIRGYYDVPIATLDFNSLYPSIMMAHNLCYTTLCNKATVERLNLKIDEDYVITPNGDYFVTTKRRRGILPIILDELISARKRAKKDLRDEKDPFKRDVLNGRQLALKISANSVYGFTGATVGKLPCLAISSSVTAYGRTMILKTKTAVQEKYCIKNGYKHDAVVVYGDTDSVMVKFGTTDLKEAMDLGTEAAKYVSTLFKHPINLEFEKAYFPYLLINKKRYAGLFWTNPDKFDKLDQKGLASVRRDSCSLVSIVMNKVLKKILIERNVDGALAFVRETINDILHNRVDISKLIISKTLAPNYTNPQPHAVLAERMKRREGVGPNVGDRVDYVIIGGNDKLYNRAEDPLFVLENNIQVDSRYYLTNQLQNPIISIVAPIIGDKQANGMFVVKSIKINTGSQKGGLMSFIKKVEACKSCKGPLRKGEGPLCSNCLARSGELYIKALYDVRDLEEKYSRLWTQCQRCAGNLHSEVLCSNKNCDIFYMRVKVKKELQEKVEQLSKW
 |  | binds weakly | binds weakly | binds | FLAG-tagged Pol3-01 (Pol3-01-Flag) of the co-IP of Figure 2C (natural protein, S. cerevisiae, UniProt P15436 1-1097, looked up, Pol3, catalytic subunit of DNA polymerase delta, S. cerevisiae, pol3-01 allele (D321A, E323A); the tags may be swapped in the text; source: S. cerevisiae, in lysate) MSEKRSLPMVDVKIDDEDTPQLEKKIKRQSIDHGVGSEPVSTIEIIPSDSFRKYNSQGFKAKDTDLMGTQLESTFEQELSQMEHDMADQEEHDLSSFERKKLPTDFDPSLYDISFQQIDAEQSVLNGIKDENTSTVVRFFGVTSEGHSVLCNVTGFKNYLYVPAPNSSDANDQEQINKFVHYLNETFDHAIDSIEVVSKQSIWGYSGDTKLPFWKIYVTYPHMVNKLRTAFERGHLSFNSWFSNGTTTYDNIAYTLRLMVDCGIVGMSWITLPKGKYSMIEPNNRVSSCQLEVSINYRNLIAHPAEGDWSHTAPLRIMSFAIACAGRIGVFPEPEYDPVIQIANVVSIAGAKKPFIRNVFTLNTCSPITGSMIFSHATEEEMLSNWRNFIIKVDPDVIIGYNTTNFDIPYLLNRAKALKVNDFPYFGRLKTVKQEIKESVFSSKAYGTRETKNVNIDGRLQLDLLQFIQREYKLRSYTLNAVSAHFLGEQKEDVHYSIISDLQNGDSETRRRLAVYCLKDAYLPLRLMEKLMALVNYTEMARVTGVPFSYLLARGQQIKVVSQLFRKCLEIDTVIPNMQSQASDDQYEGATVIEPIRGYYDVPIATLDFNSLYPSIMMAHNLCYTTLCNKATVERLNLKIDEDYVITPNGDYFVTTKRRRGILPIILDELISARKRAKKDLRDEKDPFKRDVLNGRQLALKISANSVYGFTGATVGKLPCLAISSSVTAYGRTMILKTKTAVQEKYCIKNGYKHDAVVVYGDTDSVMVKFGTTDLKEAMDLGTEAAKYVSTLFKHPINLEFEKAYFPYLLINKKRYAGLFWTNPDKFDKLDQKGLASVRRDSCSLVSIVMNKVLKKILIERNVDGALAFVRETINDILHNRVDISKLIISKTLAPNYTNPQPHAVLAERMKRREGVGPNVGDRVDYVIIGGNDKLYNRAEDPLFVLENNIQVDSRYYLTNQLQNPIISIVAPIIGDKQANGMFVVKSIKINTGSQKGGLMSFIKKVEACKSCKGPLRKGEGPLCSNCLARSGELYIKALYDVRDLEEKYSRLWTQCQRCAGNLHSEVLCSNKNCDIFYMRVKVKKELQEKVEQLSKW
